Experiments:
[1] = test system: T24 bladder cancer cell line (WT); test: tissue or blood; details: 96 h, read-out: Cell viability IC50
[2] = test system: CLS439 bladder cancer cell line (FGFR status unknown); test: tissue or blood; details: 96 h, read-out: Cell viability IC50
[3] = test system: MGH-U3 bladder cancer cell line (FGFR3 Y373C); test: tissue or blood; details: 96 h, read-out: Cell viability IC50
[4] = test system: EJ28 bladder cancer cell line (FGFR status unknown); test: cells; details: Homo sapiens, EJ-28, 96 h, read-out: Cell viability IC50
[5] = test system: UM-UC-14 bladder cancer cell line (FGFR3 S249C); test: cells; details: UMUC14, 96 h, read-out: Cell viability IC50
[6] = test system: RT4 bladder cancer cell line (FGFR3-TACC3); test: tissue or blood; details: 96 h, read-out: Cell viability IC50
[7] = test system: 639-V bladder cancer cell line (WT/R248C?); test: cells; details: Homo sapiens, 96 h, read-out: Cell viability IC50
[8] = test system: 5637 bladder cancer cell line (WT); test: tissue or blood; details: 96 h, read-out: Cell viability IC50
[9] = test system: UM-UC-1 bladder cancer cell line (WT); test: tissue or blood; details: 96 h, read-out: Cell viability IC50

**Q.** How did the IC50 [1] turn out when COc1cc(OC)cc(N(CCNC(C)C)c2ccc3ncc(-c4cnn(C)c4)nc3c2)c1 [erdafitinib, N-(3,5-dimethoxyphenyl)-N′-(1-methylethyl)-N-[3-(1-methyl-1H-pyrazol-4-yl)quinoxalin-6-yl]ethane-1,2-diamine] was run?
**A.** The IC50 was 3330 nM.

**Q.** And the IC50 [2]?
**A.** Its IC50 is 6540 nM.

**Q.** And the IC50 [3]?
**A.** Its IC50 is 2.3 nM.

**Q.** What about the IC50 [4] of the same compound?
**A.** Its IC50 is 2640 nM.

**Q.** And the IC50 [5]?
**A.** Its IC50 is 3.1 nM.

**Q.** What about the IC50 [6] of the same compound?
**A.** The IC50 was 1.1 nM.

**Q.** And the IC50 [7]?
**A.** The IC50 was over 1000 nM.

**Q.** And the IC50 [8]?
**A.** Its IC50 is 3840 nM.

**Q.** What about the IC50 [9] of the same compound?
**A.** The IC50 was 0.96 nM.

— patent US20230110113A1, “FGFR TYROSINE KINASE INHIBITORS FOR THE TREATMENT OF HIGH-RISK NON-MUSCLE INVASIVE BLADDER CANCER” (Janssen Pharmaceutica NV, priority 2020, published 2023)
